Laboratory results: PubChem BioAssay AID1259308 (NCATS, 2017)

Assay: 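Candidate targets for better recombinant protein yield in mammalian cells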 (primary screen)
System: human HEK293 embryonic kidney cells stably expressing firefly luciferase (HEK-CMV-Luc2-Hygro)
Reagent: single siRNA against human genes, 0.8 pmol siRNA per well
Time to read-out: 72 h
Detection: 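Luciferase light (ONE-Glo) measured on one replicate plate set and viability (CellTiter-Glo) on the other, scaled to a negative control siRNA, with robust z-scores and luciferase per cell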
Direction: total luciferase, z-score and total luciferase, % of control: higher = more reporter protein produced
Active means: 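An siRNA counts as active if its total luciferase robust z-score exceeds 3; genes with two or more such siRNAs out of three were retested with fresh siRNAs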
Calls: active = raised luciferase; inactive = no rise
Here is a random part of about 59,000 reagents. In the full data, about 1,510 (2.6%) are marked active. 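Calls use total luciferase alone and ignore viability, so some active siRNAs may act by altering cell number.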 Unmarked entries are inactive. The numbers tell different reagents against one gene apart. Not all columns of the deposit are shown.

C3orf36 #1 — total luciferase, z-score = 0.864; total luciferase, % of control = 99.1
C3orf36 #2 — total luciferase, z-score = 0.442; total luciferase, % of control = 90.7
C3orf36 #3 — total luciferase, z-score = -0.349; total luciferase, % of control = 74.9
TMEM209 #1 — total luciferase, z-score = -0.625; total luciferase, % of control = 69.5
TMEM209 #2 — total luciferase, z-score = -0.0325; total luciferase, % of control = 81.2
TMEM209 #3 — total luciferase, z-score = -0.214; total luciferase, % of control = 77.6
NFATC2IP #1 — total luciferase, z-score = -3.06; total luciferase, % of control = 21.1
NFATC2IP #2 — total luciferase, z-score = 0.786; total luciferase, % of control = 97.5
NFATC2IP #3 — total luciferase, z-score = 1.86; total luciferase, % of control = 119
YWHAQ #1 — total luciferase, z-score = 0.254; total luciferase, % of control = 86.9
YWHAQ #2 — total luciferase, z-score = -0.624; total luciferase, % of control = 69.5
YWHAQ #3 — total luciferase, z-score = 1.76; total luciferase, % of control = 117
